This note sets out measurements from article PMC11906015.

Results are given in words; binding and its absence hold for the method and conditions named. Binding seen in cells or lysates may run through a third protein. Some binding calls cover weakened binding; strength is not graded here.

For this test, the target named is PTEN G132D (phosphatase and tensin homolog, germline variant G132D) (human (endogenous in hiPSC)) (UniProt P60484). As to the kind of experiment: co-IP; PTEN immunoprecipitated with antibody-loaded magnetic beads from M-PER lysate (75-100 ug protein, 1 ug/uL) of homozygous hiPSCs, overnight at 4°C; cells before and after 3 Gy irradiation; co-precipitated p53 detected by western blot.

Regarding p53 (from UniProt P04637 1-393), the binding entry is reported as “binds”.
